Test results as given in PubChem BioAssay AID504582 (Broad Institute, 2011).
Values joined by “and” are separate entries in the source; they are usually repeats but may differ in a detail not shown here. Equal values may be shown once. The whole screen tested about 340,000 compounds, of which about 2,300 (0.68%) were called active. Inconclusive means that the source gave no clear call. Such entries were picked first, then a sample of the others. No stated cut-off is given here; in the data, active means growth rescue above about 28% (passing the limit was not always enough); inconclusive means no clear call, values can overlap the other calls.

assay: rescue of yeast from PfHsp40 toxicity, primary screen, S. cerevisiae, ATP luminescence (AID 504582);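 further: yeast W303a lacking pdr1 and pdr3 grown in galactose medium; growth measured after three days at 30 °C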; settings: S. cerevisiae expressing PfHsp40, growth rescue, at 12.5 µM, active compounds read high

Compound | growth rescue
COc1ccc(Cl)cc1N=Cc1c(O)cc(C)oc1=O | inconclusive: 31.3%
Nn1c(=S)[nH]nc(Cc2ccc(O)cc2)c1=O | inconclusive: 33.3%
CC(C)Cn1c(=O)c(CCC(=O)Nc2ccc(N3CCOCC3)cc2)nc2cc(Cl)ccc21 | inconclusive: 35.3%
COc1ccc(CC(=O)NC(=S)NNC(=O)COc2c(C)cccc2C)cc1 | inconclusive: 31.7%
C=CCN(c1ccccc1)S(=O)(=O)c1cccc(C(=O)NNC(=O)c2ccccc2O)c1 | active: 92.4%
O=C(CCN1C(=O)/C(=C/c2ccccc2)SC1=S)N[C@@H](CO)Cc1ccccc1 | inactive: 0.754%
CCCOc1cccc(-c2cc(C(=O)N/N=C/c3ccccn3)c3ccccc3n2)c1 | inconclusive: 64.6%
CCSc1nnc(NC(=O)c2ccccn2)s1 | inconclusive: 203%
O=C(O)c1ccc(SCc2cnc(Cl)s2)cc1 | inconclusive: 222%
Cc1cc(C)n(-c2nc(NCCCO)c3c4c(sc3n2)CCCC4)n1 | inconclusive: 28.4%
O=C(O)c1ccccc1NC(c1ccccc1)c1ccc2cccnc2c1O (stereo unspecified) | active: 322%
O=C(C1CC1)N1CCCC(c2ccc(Cl)cc2)=N1 | inconclusive: 68%
CCc1ccc(/C=N/NC(=O)c2nnn(-c3nonc3N)c2CN2CCOCC2)cc1 | inactive: -1.29%
Cc1cc(C)nc(SCC(=O)NC2=NN=C(c3ccc(Br)cc3)CS2)n1 | inactive: -0.552%
COC(=O)c1ccc(Cn2nnc3c(=O)[nH]c(C4CCN(S(=O)(=O)c5cc(C)ccc5C)CC4)nc32)cc1 | inconclusive: 60.2%
CCCOc1ccc(N2C(=O)CC(N3CCC(O)(c4cccc(C(F)(F)F)c4)CC3)C2=O)cc1 (stereo unspecified) | active: 28.4%
C/[N+]([O-])=C/c1c(OCc2ccccc2)ccc2ccccc12 | inconclusive: 37.9%
O=C(O)CN1CCN(CC(=O)O)CCN(CC(=O)O)CCN(CC(=O)O)CC1 | inconclusive: 40.5%
Cc1[nH]n(-c2ccccc2)c(=O)c1C=NCCc1ccccc1 | inactive: 0.572%
O=C(CCl)N(CCCNC(=O)C(F)(F)F)c1ccc([N+](=O)[O-])cc1 | inactive: 0.057%
O=C(/C=C/c1ccc2c(c1)OCO2)N1CCN(c2n[nH]c(=O)[nH]c2=O)CC1 | inconclusive: 31.1%
CCC(C)NCCOCCOc1ccc(Cl)cc1Br (stereo unspecified) | inactive: 0.113%

Compound | growth rescue
COc1ccc(/C=C/C(=O)Nc2cc(S(=O)(=O)N3CCCCC3)ccc2N2CCCCC2)cc1OC | inconclusive: 30.3%
N#Cc1ccc(-c2nc3cc(Cl)ccc3c(=O)n2O)cc1 | active: 136%
N#Cc1ccc(/C=C/C(=O)c2cccnc2)cc1 | inconclusive: 28.6%
O=[N+]([O-])c1ccccc1NCCNS(=O)(=O)c1ccc(Cl)cc1 | inconclusive: 32.1%
Cc1ccccc1C(=O)N1CCC(C(=O)Nc2nccs2)CC1 | inactive: 1.57%
COCC(C)n1c(C)cc(C(=O)COC(=O)C2=NN(c3ccccc3)C(=O)CC2)c1C (stereo unspecified) | inconclusive: 27.4%
CCOc1ccc2nc(NC(=O)C34CC5CC(CC(NC(C)=O)(C5)C3)C4)sc2c1 | inconclusive: 40%
CC(C)c1oc(=O)cc2c1[C@@H](O)[C@H]1OC(=O)[C@@]3(C)CC[C@@H](O)[C@@]2(C)C13 (stereo partly specified) | inactive: -0.0055%
CC(C)CC(=O)NS(=O)(=O)c1ccc(NC(=O)c2ccco2)cc1 | inconclusive: 32.3%
COc1ccc2sc(-c3ccc(N(C)C)cc3)c(C#Cc3cncn3C)c2c1 | inconclusive: 145%
O=C(Nc1cccc(C(F)(F)F)c1)NC1CCN(S(=O)(=O)c2ccc(F)cc2)CC1 | inconclusive: 41%
C/C(=N\NC(=S)NCc1ccccc1)c1ccc2ccccc2c1OC(F)F | inconclusive: 27.8%
C=CCOc1ccc(NC(=O)C(=O)NCCCn2ccnc2)cc1 | inconclusive: 36.4%
O=C(c1ccc([N+](=O)[O-])s1)N1CCN(c2cccc(Cl)c2)CC1 | inconclusive: 47.1%
C=C(c1cn(C(C)=O)c2ccccc12)c1cn(C(C)=O)c2ccccc12 | inconclusive: 57.5%
Cc1ccc(NC(=O)CN2C(=O)S/C(=C/c3ccncc3)C2=O)cc1 | inactive: -0.921%
Cc1ccc(/C=N/c2sc3c(c2C#N)CCC3)s1 | active: 43%
COC(=O)c1c(C)n(Cc2ccco2)c2ccc(O)cc12 | inconclusive: 26.2%
CCC(=O)N1CCN(c2ccc(NC(=O)c3ccco3)cc2)CC1 | inconclusive: 34.2%
O=C1CCCc2c1[nH]c1ccc(CN3CCCCC3)cc21 | inactive: -0.974%
CCN1CCN(C2=C(NS(=O)(=O)c3ccc(C)cc3)C(=O)c3ccccc3C2=O)CC1 | inactive: 1.09%
O=[N+]([O-])c1cc(-c2ccccc2)cc([N+](=O)[O-])c1O | inconclusive: 26.8%

Part of the list above, with each value named:
COCC(C)n1c(C)cc(C(=O)COC(=O)C2=NN(c3ccccc3)C(=O)CC2)c1C (stereo unspecified)
  growth rescue: inconclusive: 27.4%
C/C(=N\NC(=S)NCc1ccccc1)c1ccc2ccccc2c1OC(F)F
  growth rescue: inconclusive: 27.8%
CCN1CCN(C2=C(NS(=O)(=O)c3ccc(C)cc3)C(=O)c3ccccc3C2=O)CC1
  growth rescue: inactive: 1.09%

Next records

Compound | growth rescue
Cc1cc[n+](CC(=O)c2ccc(NC(=O)c3ccccc3)cc2)c2ccccc12 | inconclusive: 25.6%
O=C(Nc1cccnc1)c1ccc2ccccc2c1O | active: 173%
Nc1c(C(=O)c2ccc(Br)s2)oc2ccccc12 | inactive: 15.7%
COCCCNC(=O)C1CCN(C(=O)Nc2ccc(Cl)cc2)CC1 | inconclusive: 27.5%
O=C(Nc1cccc(C(F)(F)F)c1)C1CCCN1S(=O)(=O)c1cccc2cccnc12 (stereo unspecified) | inactive: -1.59%
Cc1cc(C(=O)N/N=C/c2cc(Br)cc([N+](=O)[O-])c2O)c2ccccc2n1 | active: 184%
COc1ccc(N2C(=O)C3C4C=CC(CC4)C3C2=O)c([N+](=O)[O-])c1 (stereo unspecified) | inactive: 1.26%
CCOC(=O)NNc1ccc2nonc2c1[N+](=O)[O-] | active: 124%
OCCOCCn1c(C2CCCN2c2nc(-c3ccc(F)cc3)cs2)nc2cc(C(F)(F)F)ccc21 (stereo unspecified) | inconclusive: 35.2%
Oc1c(C=C2N=c3ccccc3=N2)sc(=S)n1-c1ccc(F)cc1 | inactive: 0.387% and inactive: -0.286%
CCOC(=O)C1CCN(C(=O)CCc2nnc3ccc(NCCCN4CCCC4=O)nn23)CC1 | inconclusive: 40.9%
C[C@]12CCC3C(CC[C@H]4CCCC[C@]34C)C1CC[C@@]2(O)CNCCO (stereo partly specified) | inconclusive: 52%
CC(=O)Oc1ccc2cc(-c3nc4ccccc4n3C)c(=O)oc2c1 | inactive: -1.15%
Cc1sc(NC(=O)C2C3CCC(O3)C2C(=O)O)nc1-c1ccc(CC(C)C)cc1 (stereo unspecified) | inconclusive: 82.1%
C#CCN1C(C)=C(C(=O)OC)C(c2cccc([N+](=O)[O-])c2)C(C(=O)OCC)=C1C (stereo unspecified) | inconclusive: 28.6%
COc1ccc(-c2nc(CS(=O)CC(=O)NC3CCCCC3C)c(C)o2)cc1 (stereo unspecified) | inconclusive: 37.8%
Cc1cc(C)c(NC(=O)CN2C(=O)NC3(CCCc4ccccc43)C2=O)c(Cl)c1 (stereo unspecified) | inactive: 1.11%
O=C(NC1CCCCC1)c1cc([N+](=O)[O-])ccc1N1CCCCC1 | inactive: 0.002%
Cc1cc2cc(C)c3nnc(SCC(=O)N4CCN(C(=O)c5ccco5)CC4)n3c2cc1C | inconclusive: 26.8%
C=CCC[C@@H](Cc1ccc(F)cc1)C(=O)OC[C@@H]1CCCN1C(=O)[C@@H](CC=C)CC(=O)N[C@@H](CO)Cc1ccccc1 | active: 40.8%
Cc1ccoc1C(=O)Nc1cccc(Oc2ccccc2)c1 | active: 372%
COc1ccccc1CN=C1Nc2ccccc2CS1 | inconclusive: 31.3%

Compound | growth rescue
COc1cccc(Nc2nc(N)c([N+](=O)[O-])c(NCc3ccccc3)n2)c1 | inconclusive: 28.7%
CN(C)c1ccc(NC2=C(Cl)C(=O)c3ccccc3C2=O)cc1 | inconclusive: 32%
O=C(O)/C(=C\c1cn(-c2ccccc2)nc1-c1cccnc1)NC(=O)c1ccccc1 | inactive: -0.651%
C#CCOCCOCCOCCNc1nc(N2CCN(C(=O)CCCCCCCCCCNC(=O)Cn3cc(CCCCCN)nn3)CC2)nc(N2CCN(C(=O)CCCCCCCCCCNC(=O)[C@@H](CCSC)n3cc(CCO)nn3)CC2)n1 | inconclusive: 25.1%
Cc1ccc(/C=C(\C#N)C(=O)NCC2CCCO2)o1 (stereo unspecified) | inconclusive: 45.7%
O=C1Nc2ccc(Cl)cc2C(C#CC2CC2)(C(F)(F)F)O1 (stereo unspecified) | inconclusive: 29.7%
COc1ccc(Cc2nc(-c3ccc(NC(=O)c4cccnc4)cc3)no2)cc1 | inactive: -0.239%
CCOc1ccc(NC(=S)NNC(=O)c2cc(Br)ccc2Cl)cc1 | inconclusive: 35.8%
Clc1ccc(N=C2SCCS2)cc1 | inconclusive: 28.1%
COc1cc(NC(=S)N2CCCC(CO)C2)c(OC)cc1Cl (stereo unspecified) | inactive: -0.728%
CCN(CC)CCOC(=O)C(O)(c1ccccc1)c1ccccc1 | inconclusive: 35.1%
Nc1ccc2oc(-c3cccc4ccccc34)nc2c1 | inactive: 0.24%
O=C(O)c1ccc(/C=N/NC(=O)c2cc3c(ccc4ccccc43)o2)cc1 | inactive: -0.823%
Cc1cc(N2CCOCC2)nc2ccc(NC(=O)CCC(=O)N3CCN(c4ccccc4)CC3)cc12 | inactive: -0.767%
COc1cc(/C=C/C(=O)CC(=O)/C=C/c2ccc(O)c(OC)c2)ccc1O | inconclusive: 123%
O=C(CCNS(=O)(=O)c1ccccc1)N1CCN(c2ccccc2)CC1 | active: 53.8%
CN(C)C1CCN(Cc2cc(COCc3ccccc3)c3cccnc3c2O)C1 (stereo unspecified) | inconclusive: 147%
CCCCOc1ccc2c(c1)C(=O)c1cc(O)ccc1-2 | active: 284%
COc1ccc(NC(=O)c2c(-c3c(Cl)cccc3Cl)noc2C)c(OC)c1 | inactive: 0.436%
C#CCSc1nnc(-c2sc3ccccc3c2Cl)o1 | inconclusive: 26.6%
